PubChem BioAssay AID504764 – Drosophila RNAi Screening Center, 2011
The deposit covers about 22,000 reagents; this is an unselected part of those that have a named target and a result. Over the whole deposit, 403 (1.9%) are marked active. 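Unnormalised raw counts per well; ratio z-scores behind the hit calls and whether each hit raises or lowers signal are not deposited.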 Unmarked entries are inactive. A plus sign joins genes that one reagent is predicted to hit. No sequences are given here. The record does not give: the amount of reagent.

Test: 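Genome-wide screen for regulators of Notch-driven gene expression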 (primary screen)
Cell system: Drosophila Kc167 cells
Knock-down reagent: long dsRNA against Drosophila genes
Duration: about 5 days (4 days dsRNA, then 24 h after transfection)
Conditions: transfection of constitutively active membrane-tethered Notch lacking the extracellular domain, read 24 h later
Read-out: 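Light from a Notch-responsive E(spl)m3 luciferase reporter under active Notch, with control-promoter and no-Notch reporter wells to normalise; raw counts from paired wells a and b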
Reading the numbers: induced reporter light, run 1, well a and induced reporter light, run 1, well b: higher = more light from the Notch target reporter with active Notch; control promoter light, run 1, well a and control promoter light, run 1, well b: higher = more light from the viral control promoter (cell number, transfection, viability); uninduced reporter light, run 1, well a: higher = more light from the Notch target reporter without active Notch
Active means: 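Wells with low control signal or poorly matching duplicates excluded; duplicates averaged; per source plate, z beyond ±2 for induced/control log2 ratio or beyond ±1.8 for induced/uninduced marks a hit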
Meaning of the calls: active = modifier hit (raised or lowered Notch signal); inactive = not a hit

Yif1 (Yip1-interacting factor 1) [DRSC15817] → induced reporter light, run 1, well a = 1.18e5; induced reporter light, run 1, well b = 1.20e5; control promoter light, run 1, well a = 1.65e5; control promoter light, run 1, well b = 1.44e5; uninduced reporter light, run 1, well a = 7888
MME1 (Mitochondrial Magnesium Exporter 1) [DRSC02714] → induced reporter light, run 1, well a = 1.86e5; induced reporter light, run 1, well b = 1.81e5; control promoter light, run 1, well a = 2.31e5; control promoter light, run 1, well b = 2.03e5; uninduced reporter light, run 1, well a = 16320
MESR4 (Misexpression suppressor of ras 4) [DRSC06901] → induced reporter light, run 1, well a = 1.67e5; induced reporter light, run 1, well b = 1.24e5; control promoter light, run 1, well a = 1.66e5; control promoter light, run 1, well b = 1.74e5; uninduced reporter light, run 1, well a = 11870
CG8229 + CG33199 [DRSC05134] → induced reporter light, run 1, well a = 39605; induced reporter light, run 1, well b = 53880; control promoter light, run 1, well a = 60695; control promoter light, run 1, well b = 74445; uninduced reporter light, run 1, well a = 2495
Hsp23 (Heat shock protein 23) [DRSC11188] → induced reporter light, run 1, well a = 93480; induced reporter light, run 1, well b = 75830; control promoter light, run 1, well a = 74370; control promoter light, run 1, well b = 26780; uninduced reporter light, run 1, well a = 9375
rec (recombination-defective) [DRSC14998] → induced reporter light, run 1, well a = 2.42e5; induced reporter light, run 1, well b = 2.93e5; control promoter light, run 1, well a = 2.82e5; control promoter light, run 1, well b = 2.74e5; uninduced reporter light, run 1, well a = 18120
rec (recombination-defective) [DRSC15656] → induced reporter light, run 1, well a = 2.50e5; induced reporter light, run 1, well b = 2.72e5; control promoter light, run 1, well a = 2.87e5; control promoter light, run 1, well b = 2.86e5; uninduced reporter light, run 1, well a = 20720
Mtk (Metchnikowin) [DRSC07475] → induced reporter light, run 1, well a = 96070; induced reporter light, run 1, well b = 1.10e5; control promoter light, run 1, well a = 1.22e5; control promoter light, run 1, well b = 1.04e5; uninduced reporter light, run 1, well a = 8405
CG14947 [DRSC02429] → induced reporter light, run 1, well a = 1.79e5; induced reporter light, run 1, well b = 2.08e5; control promoter light, run 1, well a = 1.71e5; control promoter light, run 1, well b = 1.97e5; uninduced reporter light, run 1, well a = 17275
CG7368 [DRSC10826] → induced reporter light, run 1, well a = 2.24e5; induced reporter light, run 1, well b = 2.12e5; control promoter light, run 1, well a = 2.96e5; control promoter light, run 1, well b = 2.29e5; uninduced reporter light, run 1, well a = 11320
SelT (Selenoprotein T) [DRSC02732] → induced reporter light, run 1, well a = 2.15e5; induced reporter light, run 1, well b = 1.77e5; control promoter light, run 1, well a = 1.91e5; control promoter light, run 1, well b = 1.77e5; uninduced reporter light, run 1, well a = 18060
fs(1)h (female sterile (1) homeotic) [DRSC18778] → induced reporter light, run 1, well a = 2.08e5; induced reporter light, run 1, well b = 2.08e5; control promoter light, run 1, well a = 3.09e5; control promoter light, run 1, well b = 3.48e5; uninduced reporter light, run 1, well a = 15465

Continued; the last 2 above are carried over.
SelT (Selenoprotein T) [DRSC02732] → induced reporter light, run 1, well a = 2.15e5; induced reporter light, run 1, well b = 1.77e5; control promoter light, run 1, well a = 1.91e5; control promoter light, run 1, well b = 1.77e5; uninduced reporter light, run 1, well a = 18060
fs(1)h (female sterile (1) homeotic) [DRSC18778] → induced reporter light, run 1, well a = 2.08e5; induced reporter light, run 1, well b = 2.08e5; control promoter light, run 1, well a = 3.09e5; control promoter light, run 1, well b = 3.48e5; uninduced reporter light, run 1, well a = 15465
CG14125 [DRSC10129] → induced reporter light, run 1, well a = 1.59e5; induced reporter light, run 1, well b = 1.66e5; control promoter light, run 1, well a = 1.89e5; control promoter light, run 1, well b = 1.62e5; uninduced reporter light, run 1, well a = 8365
CG31326 [DRSC16532] → induced reporter light, run 1, well a = 3.34e5; induced reporter light, run 1, well b = 3.31e5; control promoter light, run 1, well a = 2.41e5; control promoter light, run 1, well b = 2.54e5; uninduced reporter light, run 1, well a = 20375
CHKov2 (CHK domain ov2) [DRSC14262] → induced reporter light, run 1, well a = 2.93e5; induced reporter light, run 1, well b = 2.76e5; control promoter light, run 1, well a = 5.26e5; control promoter light, run 1, well b = 4.20e5; uninduced reporter light, run 1, well a = 19738
Gdh (Glutamate dehydrogenase) [DRSC16679] → induced reporter light, run 1, well a = 1.01e5 (active); induced reporter light, run 1, well b = 1.44e5; control promoter light, run 1, well a = 2.23e5; control promoter light, run 1, well b = 2.60e5; uninduced reporter light, run 1, well a = 12110
Fdx2 (Ferredoxin 2) [DRSC08306] → induced reporter light, run 1, well a = 52935; induced reporter light, run 1, well b = 1.77e5; control promoter light, run 1, well a = 2.43e5; control promoter light, run 1, well b = 2.11e5; uninduced reporter light, run 1, well a = 8765
UQCR-C1 (Ubiquinol-cytochrome c reductase core protein 1) [DRSC15508] → induced reporter light, run 1, well a = 1.27e5; induced reporter light, run 1, well b = 1.18e5; control promoter light, run 1, well a = 79500; control promoter light, run 1, well b = 91695; uninduced reporter light, run 1, well a = 9220
